From article PMC2279262
These are yes or no findings as the source states them, for the method shown. In cells and extracts the contact can be indirect. Some binding calls cover weakened binding; strength is not graded here. Sequences can lack the tags named with a protein.

Key:
Test in all cases: co-IP; CHO cells co-transfected with WT or mutant CD81-EGFP and CD9P-1 or EWI-2; lysed after 48 h in 30 mM Tris pH 7.4, 150 mM NaCl, 1% digitonin; immunoprecipitation with antibodies against CD81 (1D6), CD9P-1 and EWI-2; blots with biotin-labelled mAbs TS81, 1F11 and 8A12
[1] = molecular target: T1, CD81 DDD (137–139)→AAA mutant in fusion with EGFP (human) (UniProt P60033)
T1 sequence: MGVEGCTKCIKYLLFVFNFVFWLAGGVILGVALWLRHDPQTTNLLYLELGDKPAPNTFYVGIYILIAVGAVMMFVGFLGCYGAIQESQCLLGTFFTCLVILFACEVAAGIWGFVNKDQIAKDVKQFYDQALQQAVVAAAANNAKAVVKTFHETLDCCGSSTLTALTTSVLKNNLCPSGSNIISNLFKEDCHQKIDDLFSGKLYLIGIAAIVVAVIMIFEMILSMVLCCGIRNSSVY

[2] = molecular target: T2, CD81 VVD (135–137)→AAA mutant in fusion with EGFP (human) (UniProt P60033)
T2 sequence: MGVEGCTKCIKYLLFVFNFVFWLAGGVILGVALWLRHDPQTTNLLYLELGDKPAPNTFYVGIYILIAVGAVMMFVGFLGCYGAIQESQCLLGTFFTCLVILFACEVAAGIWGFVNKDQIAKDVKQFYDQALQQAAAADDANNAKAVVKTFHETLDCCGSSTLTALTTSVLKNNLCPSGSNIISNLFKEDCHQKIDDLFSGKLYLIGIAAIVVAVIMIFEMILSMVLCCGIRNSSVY

[3] = molecular target: T3, WT CD81 in fusion with EGFP (human) (UniProt P60033)
T3 sequence: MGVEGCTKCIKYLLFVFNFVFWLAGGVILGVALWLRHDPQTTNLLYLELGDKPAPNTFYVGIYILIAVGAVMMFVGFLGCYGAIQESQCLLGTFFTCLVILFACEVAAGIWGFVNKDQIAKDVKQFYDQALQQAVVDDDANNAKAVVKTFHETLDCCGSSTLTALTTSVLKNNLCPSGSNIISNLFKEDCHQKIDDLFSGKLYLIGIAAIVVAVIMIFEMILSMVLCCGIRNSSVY

EWI-2 = molecular target: T4, EWI-2 (UniProt Q969P0)
T4 sequence: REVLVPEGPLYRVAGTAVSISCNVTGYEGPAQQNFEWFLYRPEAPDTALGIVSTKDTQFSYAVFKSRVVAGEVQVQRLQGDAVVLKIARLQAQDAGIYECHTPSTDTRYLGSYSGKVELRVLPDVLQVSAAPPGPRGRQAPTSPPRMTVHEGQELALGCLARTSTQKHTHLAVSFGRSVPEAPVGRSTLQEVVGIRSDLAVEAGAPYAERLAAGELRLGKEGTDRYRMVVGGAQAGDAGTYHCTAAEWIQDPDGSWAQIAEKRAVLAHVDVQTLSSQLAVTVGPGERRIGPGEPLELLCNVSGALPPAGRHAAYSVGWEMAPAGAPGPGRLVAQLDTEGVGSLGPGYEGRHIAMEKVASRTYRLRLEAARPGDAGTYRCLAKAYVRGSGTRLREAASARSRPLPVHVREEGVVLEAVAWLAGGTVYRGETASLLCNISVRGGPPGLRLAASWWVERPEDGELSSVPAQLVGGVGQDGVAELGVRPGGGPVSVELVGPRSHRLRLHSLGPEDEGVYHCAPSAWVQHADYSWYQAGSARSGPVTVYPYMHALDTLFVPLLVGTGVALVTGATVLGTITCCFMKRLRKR

CD9P-1 = molecular target: T5, CD9P-1 (UniProt Q9P2B2)
T5 sequence: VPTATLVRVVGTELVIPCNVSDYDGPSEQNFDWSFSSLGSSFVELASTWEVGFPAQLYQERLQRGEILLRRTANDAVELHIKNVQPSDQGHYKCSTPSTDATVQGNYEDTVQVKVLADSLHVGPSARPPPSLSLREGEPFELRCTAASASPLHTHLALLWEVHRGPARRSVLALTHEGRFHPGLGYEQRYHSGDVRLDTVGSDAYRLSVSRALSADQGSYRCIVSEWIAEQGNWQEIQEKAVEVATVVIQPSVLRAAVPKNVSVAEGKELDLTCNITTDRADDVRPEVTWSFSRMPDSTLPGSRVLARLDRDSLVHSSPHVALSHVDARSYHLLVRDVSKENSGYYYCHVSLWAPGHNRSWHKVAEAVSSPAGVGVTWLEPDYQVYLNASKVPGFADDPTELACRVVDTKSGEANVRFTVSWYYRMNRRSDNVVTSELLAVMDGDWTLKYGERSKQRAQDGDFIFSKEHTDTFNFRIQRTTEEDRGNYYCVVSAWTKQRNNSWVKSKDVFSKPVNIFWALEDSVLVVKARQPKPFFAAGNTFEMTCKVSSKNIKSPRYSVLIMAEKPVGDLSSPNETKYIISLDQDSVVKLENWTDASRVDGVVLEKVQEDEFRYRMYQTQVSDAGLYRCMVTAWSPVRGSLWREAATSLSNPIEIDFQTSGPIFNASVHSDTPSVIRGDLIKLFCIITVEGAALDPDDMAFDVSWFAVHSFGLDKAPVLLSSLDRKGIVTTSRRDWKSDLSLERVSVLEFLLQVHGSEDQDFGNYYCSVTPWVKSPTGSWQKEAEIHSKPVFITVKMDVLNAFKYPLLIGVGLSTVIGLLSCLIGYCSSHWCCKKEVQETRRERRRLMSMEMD

B1: CD9P-1 (protein, UniProt Q9P2B2 26-879)
chain: VPTATLVRVVGTELVIPCNVSDYDGPSEQNFDWSFSSLGSSFVELASTWEVGFPAQLYQERLQRGEILLRRTANDAVELHIKNVQPSDQGHYKCSTPSTDATVQGNYEDTVQVKVLADSLHVGPSARPPPSLSLREGEPFELRCTAASASPLHTHLALLWEVHRGPARRSVLALTHEGRFHPGLGYEQRYHSGDVRLDTVGSDAYRLSVSRALSADQGSYRCIVSEWIAEQGNWQEIQEKAVEVATVVIQPSVLRAAVPKNVSVAEGKELDLTCNITTDRADDVRPEVTWSFSRMPDSTLPGSRVLARLDRDSLVHSSPHVALSHVDARSYHLLVRDVSKENSGYYYCHVSLWAPGHNRSWHKVAEAVSSPAGVGVTWLEPDYQVYLNASKVPGFADDPTELACRVVDTKSGEANVRFTVSWYYRMNRRSDNVVTSELLAVMDGDWTLKYGERSKQRAQDGDFIFSKEHTDTFNFRIQRTTEEDRGNYYCVVSAWTKQRNNSWVKSKDVFSKPVNIFWALEDSVLVVKARQPKPFFAAGNTFEMTCKVSSKNIKSPRYSVLIMAEKPVGDLSSPNETKYIISLDQDSVVKLENWTDASRVDGVVLEKVQEDEFRYRMYQTQVSDAGLYRCMVTAWSPVRGSLWREAATSLSNPIEIDFQTSGPIFNASVHSDTPSVIRGDLIKLFCIITVEGAALDPDDMAFDVSWFAVHSFGLDKAPVLLSSLDRKGIVTTSRRDWKSDLSLERVSVLEFLLQVHGSEDQDFGNYYCSVTPWVKSPTGSWQKEAEIHSKPVFITVKMDVLNAFKYPLLIGVGLSTVIGLLSCLIGYCSSHWCCKKEVQETRRERRRLMSMEMD
In the case of B1, the binding [1] is reported as “binds”, the binding [2] is reported as “binds” and the binding [3] is reported as “binds”.

B2: CD81 DDD (137–139)→AAA mutant in fusion with EGFP (protein, UniProt P60033 1-236)
chain: MGVEGCTKCIKYLLFVFNFVFWLAGGVILGVALWLRHDPQTTNLLYLELGDKPAPNTFYVGIYILIAVGAVMMFVGFLGCYGAIQESQCLLGTFFTCLVILFACEVAAGIWGFVNKDQIAKDVKQFYDQALQQAVVAAAANNAKAVVKTFHETLDCCGSSTLTALTTSVLKNNLCPSGSNIISNLFKEDCHQKIDDLFSGKLYLIGIAAIVVAVIMIFEMILSMVLCCGIRNSSVY
For B2, the binding (EWI-2) was “binds” and the binding (CD9P-1) was “binds”.

B3: EWI-2 (protein, UniProt Q969P0 28-613)
chain: REVLVPEGPLYRVAGTAVSISCNVTGYEGPAQQNFEWFLYRPEAPDTALGIVSTKDTQFSYAVFKSRVVAGEVQVQRLQGDAVVLKIARLQAQDAGIYECHTPSTDTRYLGSYSGKVELRVLPDVLQVSAAPPGPRGRQAPTSPPRMTVHEGQELALGCLARTSTQKHTHLAVSFGRSVPEAPVGRSTLQEVVGIRSDLAVEAGAPYAERLAAGELRLGKEGTDRYRMVVGGAQAGDAGTYHCTAAEWIQDPDGSWAQIAEKRAVLAHVDVQTLSSQLAVTVGPGERRIGPGEPLELLCNVSGALPPAGRHAAYSVGWEMAPAGAPGPGRLVAQLDTEGVGSLGPGYEGRHIAMEKVASRTYRLRLEAARPGDAGTYRCLAKAYVRGSGTRLREAASARSRPLPVHVREEGVVLEAVAWLAGGTVYRGETASLLCNISVRGGPPGLRLAASWWVERPEDGELSSVPAQLVGGVGQDGVAELGVRPGGGPVSVELVGPRSHRLRLHSLGPEDEGVYHCAPSAWVQHADYSWYQAGSARSGPVTVYPYMHALDTLFVPLLVGTGVALVTGATVLGTITCCFMKRLRKR
With B3 the binding [1] was “binds”, the binding [2] was “binds” and the binding [3] was “binds”.

B4: CD81 VVD (135–137)→AAA mutant in fusion with EGFP (protein, UniProt P60033 1-236)
chain: MGVEGCTKCIKYLLFVFNFVFWLAGGVILGVALWLRHDPQTTNLLYLELGDKPAPNTFYVGIYILIAVGAVMMFVGFLGCYGAIQESQCLLGTFFTCLVILFACEVAAGIWGFVNKDQIAKDVKQFYDQALQQAAAADDANNAKAVVKTFHETLDCCGSSTLTALTTSVLKNNLCPSGSNIISNLFKEDCHQKIDDLFSGKLYLIGIAAIVVAVIMIFEMILSMVLCCGIRNSSVY
B4 was tested, and the binding (EWI-2) was “binds” and the binding (CD9P-1) was “binds”.
